PubChem BioAssay AID652243 – Drosophila RNAi Screening Center – 2013
In all, the deposit lists about 24,000 reagents; shown is an unselected part of those that have a named target and a result. Of all reagents, 246 (1%) were called active. 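Plates not normalised; calls are printed but the firefly/Renilla ratio behind them is not deposited; fold cut for lowering reported inconsistently.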 Raw values are not corrected between plates. A number with no mark means an inactive call. The record does not give: the amount of reagent.

- Screen: 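Fly genes required for human androgen receptor driven transcription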 (primary screen)
- Cells: Drosophila S2R+ cells
- Reagents: long dsRNA against Drosophila genes
- Time to read-out: 72 h (48 h, then 24 h hormone)
- Treatment: synthetic androgen R1881 at 10 nM for 24 h
- Measured: 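Per-well raw luminescence of the androgen-driven firefly reporter and of the Renilla control, two replicates each, without normalisation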
- Direction: firefly reporter light: higher = more light from androgen-responsive reporter; Renilla control light: higher = more constitutive control signal (cell number, transfection)
- Call rule: 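Hit when the log firefly-to-Renilla ratio dropped or increased by a fixed fold versus the mean of GFP or LacZ controls across duplicate plates; lowering cut given as 1.5 and as 3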
- Calls: active = hit: reporter lowered or raised; inactive = no hit

For CG13272 [DRSC02249] the deposit lists firefly reporter light, replicate 1 = 1.12e5; firefly reporter light, replicate 2 = 1.54e5; Renilla control light, replicate 1 = 1.85e6; Renilla control light, replicate 2 = 2.30e6.
After knock-down of CG13272 [DRSC22910], the screen gave firefly reporter light, replicate 1 = 4.51e5; firefly reporter light, replicate 2 = 1.21e6; Renilla control light, replicate 1 = 1.26e6; Renilla control light, replicate 2 = 1.63e6.
Depletion of CG13272 [DRSC28613] gave: firefly reporter light, replicate 1 = 4.19e5; firefly reporter light, replicate 2 = 4.79e5; Renilla control light, replicate 1 = 1.09e6; Renilla control light, replicate 2 = 1.59e6.
CG13727 [DRSC10055] scored firefly reporter light, replicate 1 = 3.33e5; firefly reporter light, replicate 2 = 3.71e5; Renilla control light, replicate 1 = 3.97e6; Renilla control light, replicate 2 = 3.19e6.
With knock-down of CG34039 [DRSC37914], the record shows firefly reporter light, replicate 1 = 9.96e5; firefly reporter light, replicate 2 = 9.39e5; Renilla control light, replicate 1 = 2.36e6; Renilla control light, replicate 2 = 1.96e6.
For Nhe1 [DRSC00762], the values are firefly reporter light, replicate 1 = 1.18e6; firefly reporter light, replicate 2 = 1.12e6; Renilla control light, replicate 1 = 4.87e6; Renilla control light, replicate 2 = 2.99e6.
Sdb [DRSC06272] showed firefly reporter light, replicate 1 = 78257; firefly reporter light, replicate 2 = 1.03e5; Renilla control light, replicate 1 = 1.63e6; Renilla control light, replicate 2 = 1.63e6.
Against Sdb [DRSC06273], the entry reads firefly reporter light, replicate 1 = 1.44e5; firefly reporter light, replicate 2 = 1.87e5; Renilla control light, replicate 1 = 2.96e6; Renilla control light, replicate 2 = 2.96e6.
Against Sdb [DRSC07155], the values are firefly reporter light, replicate 1 = 1.42e6; firefly reporter light, replicate 2 = 8.83e5; Renilla control light, replicate 1 = 2.82e6; Renilla control light, replicate 2 = 1.95e6.
kdn [DRSC18328] showed firefly reporter light, replicate 1 = 2.15e5; firefly reporter light, replicate 2 = 1.81e5; Renilla control light, replicate 1 = 1.96e6; Renilla control light, replicate 2 = 2.19e6.
CG11629 [DRSC03695] gave firefly reporter light, replicate 1 = 1.75e5; firefly reporter light, replicate 2 = 2.36e5; Renilla control light, replicate 1 = 9.66e5; Renilla control light, replicate 2 = 1.39e6.
SAK [DRSC11879] showed firefly reporter light, replicate 1 = 2.50e5; firefly reporter light, replicate 2 = 1.05e5; Renilla control light, replicate 1 = 2.62e6; Renilla control light, replicate 2 = 1.48e6.
With knock-down of SAK [DRSC23329], the screen gave firefly reporter light, replicate 1 = 6.57e5; firefly reporter light, replicate 2 = 6.97e5; Renilla control light, replicate 1 = 9.05e5; Renilla control light, replicate 2 = 7.42e5.
Against SAK [DRSC29461] the deposit lists firefly reporter light, replicate 1 = 4.64e5; firefly reporter light, replicate 2 = 4.36e5; Renilla control light, replicate 1 = 9.29e5; Renilla control light, replicate 2 = 9.29e5.

Entries above whose target name starts with C or c:
CG13272 [DRSC02249] | firefly reporter light, replicate 1 = 1.12e5; firefly reporter light, replicate 2 = 1.54e5; Renilla control light, replicate 1 = 1.85e6; Renilla control light, replicate 2 = 2.30e6
CG13272 [DRSC22910] | firefly reporter light, replicate 1 = 4.51e5; firefly reporter light, replicate 2 = 1.21e6; Renilla control light, replicate 1 = 1.26e6; Renilla control light, replicate 2 = 1.63e6
CG13272 [DRSC28613] | firefly reporter light, replicate 1 = 4.19e5; firefly reporter light, replicate 2 = 4.79e5; Renilla control light, replicate 1 = 1.09e6; Renilla control light, replicate 2 = 1.59e6
CG13727 [DRSC10055] | firefly reporter light, replicate 1 = 3.33e5; firefly reporter light, replicate 2 = 3.71e5; Renilla control light, replicate 1 = 3.97e6; Renilla control light, replicate 2 = 3.19e6
CG34039 [DRSC37914] | firefly reporter light, replicate 1 = 9.96e5; firefly reporter light, replicate 2 = 9.39e5; Renilla control light, replicate 1 = 2.36e6; Renilla control light, replicate 2 = 1.96e6
CG11629 [DRSC03695] | firefly reporter light, replicate 1 = 1.75e5; firefly reporter light, replicate 2 = 2.36e5; Renilla control light, replicate 1 = 9.66e5; Renilla control light, replicate 2 = 1.39e6

The listing continues:
nau [DRSC17011] gave firefly reporter light, replicate 1 = 1.67e5; firefly reporter light, replicate 2 = 1.04e5; Renilla control light, replicate 1 = 1.68e6; Renilla control light, replicate 2 = 1.68e6.
Silencing of Lcp65Ad [DRSC11211] resulted in: firefly reporter light, replicate 1 = 2.35e5; firefly reporter light, replicate 2 = 1.98e5; Renilla control light, replicate 1 = 3.47e6; Renilla control light, replicate 2 = 2.36e6.
After knock-down of Lcp65Ad [DRSC24630], the record shows firefly reporter light, replicate 1 = 5.39e5; firefly reporter light, replicate 2 = 3.63e5; Renilla control light, replicate 1 = 3.61e5; Renilla control light, replicate 2 = 2.32e5.
With knock-down of Usp10 [DRSC08282], the record shows firefly reporter light, replicate 1 = 4.49e5; firefly reporter light, replicate 2 = 3.85e5; Renilla control light, replicate 1 = 8.80e5; Renilla control light, replicate 2 = 8.13e5.
Against Usp10 [DRSC08373] the deposit lists firefly reporter light, replicate 1 = 36025; firefly reporter light, replicate 2 = 49951; Renilla control light, replicate 1 = 5.67e5; Renilla control light, replicate 2 = 5.71e5.
Silencing of CR42546 [DRSC03711] came out at: firefly reporter light, replicate 1 = 3.14e5; firefly reporter light, replicate 2 = 2.88e5; Renilla control light, replicate 1 = 1.81e6; Renilla control light, replicate 2 = 1.16e6.
Knock-down of SelG [DRSC19808] gave: firefly reporter light, replicate 1 = 1.05e5; firefly reporter light, replicate 2 = 97524; Renilla control light, replicate 1 = 1.15e6; Renilla control light, replicate 2 = 9.46e5.
For SelG [DRSC25206], the entry reads firefly reporter light, replicate 1 = 2.85e5; firefly reporter light, replicate 2 = 3.01e5; Renilla control light, replicate 1 = 1.10e6; Renilla control light, replicate 2 = 5.87e5.
After knock-down of CG13024 [DRSC09904] the results were firefly reporter light, replicate 1 = 2.74e5; firefly reporter light, replicate 2 = 2.63e5; Renilla control light, replicate 1 = 2.21e6; Renilla control light, replicate 2 = 1.91e6.
With knock-down of CG13024 [DRSC29921] the results were firefly reporter light, replicate 1 = 3.98e5; firefly reporter light, replicate 2 = 4.46e5; Renilla control light, replicate 1 = 1.07e6; Renilla control light, replicate 2 = 1.35e6.
After knock-down of CG33469 [DRSC22900], the record shows firefly reporter light, replicate 1 = 5.98e5; firefly reporter light, replicate 2 = 1.03e6; Renilla control light, replicate 1 = 1.61e6; Renilla control light, replicate 2 = 1.91e6.
Depletion of CG13713 [DRSC08322] came out at: firefly reporter light, replicate 1 = 1.85e5; firefly reporter light, replicate 2 = 1.70e5; Renilla control light, replicate 1 = 1.91e6; Renilla control light, replicate 2 = 2.42e6.
Ets97D [DRSC16665] gave firefly reporter light, replicate 1 = 1.88e5; firefly reporter light, replicate 2 = 1.71e5; Renilla control light, replicate 1 = 2.61e6; Renilla control light, replicate 2 = 2.60e6.
With knock-down of Ets97D [DRSC27682], the screen gave firefly reporter light, replicate 1 = 3.73e5; firefly reporter light, replicate 2 = 4.34e5; Renilla control light, replicate 1 = 5.15e5; Renilla control light, replicate 2 = 6.31e5.
